# Assay results: PubChem BioAssay AID1487 (National Center for Advancing Translational Sciences (NCATS), 2009)
# This is one part of the list. Shown are side measurements of this screen, not its main read-out; they come without a call. The list favours compounds with an active or inconclusive main result. Potencies come from curve fits of mixed quality, noted in brackets.
# Experiment: qHTS Assay for Modulators of Lamin A Splicing
# Settings: HeLa LMNA splicing GFP/RFP minigene ratio, 48 h
# How it was run: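 Read-out is the ratio of GFP to DsRed2 object intensity, acquired by 488 nm laser-scanning cytometry on HeLa lamin A-EGFP minigene reporter cells. Compound incubation 48 hrs at 37 °C in Opti-MEM with 2% FBS; DMSO 0.5% final.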
# [1] = measured here: RFP viability control channel
# [2] = measured here: GFP splicing reporter channel
SMILES,AC50 [1],AC50 [2]
Cc1ccc(N2CCN(C(=O)c3c(C)oc4ncnc(N5CCOCC5)c34)CC2)c(C)c1,"15.8 µM [rising, partial curve]",–
CCOC(=O)CN1C(=O)C(O)(C2CCc3ccccc3C2=O)c2ccccc21 (stereo not drawn),"25.1 µM [falling, partial curve, poor fit]",–
CCCSc1nc2cc(OC)c(OC)cc2c(=N)n1CCCN1CCOCC1,"1.26 µM [rising, full curve, poor fit]",–
Cc1ccc(C(=O)Nc2nnc(S(=O)(=O)N3CCN(c4ccc(F)cc4)CC3)s2)cc1,–,"0.126 µM [falling, full curve, poor fit]"
Cc1ccc2scc(N3CCCCC3)c(=O)c2c1,–,"3.98 µM [rising, full curve, poor fit]"
O=Cc1ccc(OCC(=O)Nc2ccccc2C(F)(F)F)cc1,–,"12.6 µM [rising, single point]"
CSc1nc(N)c2ncn([C@@H]3O[C@H](COP(=O)(O)OP(=O)(O)OP(=O)(O)O)[C@H](O)[C@H]3O)c2n1,–,"0.2 µM [falling, full curve, poor fit]"
O=C(Cn1c(=O)oc2cc(S(=O)(=O)NCc3ccccc3)ccc21)NCc1ccccc1Cl,"3.55 µM [falling, single point]","3.16 µM [falling, single point]"
Cc1ccc(N2CCN(C(=O)C3CCN(c4ncnc5c4nc4n5CCCCC4)CC3)CC2)c(C)c1,"35.5 µM [falling, single point]",–
COc1cc([C@H]2Oc3cc([C@H]4Oc5cc(O)cc(O)c5C(=O)[C@@H]4O)ccc3O[C@@H]2CO)ccc1O,"0.0178 µM [falling, full curve, poor fit]","0.00631 µM [falling, full curve, poor fit]"
COc1ccc(NC(=O)CC2SC(=Nc3ccccc3)NC2=O)cc1 (stereo not drawn),"3.55 µM [rising, single point]","8.91 µM [rising, single point]"
Cc1occc(=O)c1OCc1ccccc1,"1.26 µM [falling, partial curve, poor fit]",–
CCOCCCn1c(SC(C(=O)Nc2cc(C)ccc2C)c2ccccc2)nnc1-c1ccc(Cl)cc1 (stereo not drawn),–,"35.5 µM [rising, single point]"
NC(N)=N[C@@H](CCC(=O)O)C(=O)O,"1.58 µM [rising, full curve, poor fit]","17.8 µM [rising, partial curve, poor fit]"
Cc1ccccc1-c1nc(CS(=O)(=O)CC(=O)NCc2ccc3c(c2)OCO3)c(C)o1,"11.2 µM [rising, single point]",–
COC(=O)c1ccc(C(NC(=O)OCc2ccccc2)/C(C)=C/[C@@H](C)C(=O)NCc2ccc(-c3ccccc3)cc2)cc1 (stereo partly drawn),"31.6 µM [rising, single point]",–
O=c1cc(NS(=O)(=O)c2ccccc2)nc(SCc2c(Cl)cccc2Cl)[nH]1,"35.5 µM [rising, single point]",–
CO/N=C(/C(=O)N[C@@H]1C(=O)N2C(C(=O)O)=C(COC(N)=O)CS[C@H]12)c1ccco1,–,"5.62 µM [rising, partial curve, poor fit]"
CCCCOC(=O)CSc1nc2c(c(=O)[nH]c(=O)n2C)n1C/C=C(\C)Cl,"2.24 µM [rising, full curve, poor fit]",–

# Retrieved by structure from the entries so far:
SMILES,AC50 [1],AC50 [2]
Cc1ccc(C(=O)Nc2nnc(S(=O)(=O)N3CCN(c4ccc(F)cc4)CC3)s2)cc1,–,"0.126 µM [falling, full curve, poor fit]"
NC(N)=N[C@@H](CCC(=O)O)C(=O)O,"1.58 µM [rising, full curve, poor fit]","17.8 µM [rising, partial curve, poor fit]"
CO/N=C(/C(=O)N[C@@H]1C(=O)N2C(C(=O)O)=C(COC(N)=O)CS[C@H]12)c1ccco1,–,"5.62 µM [rising, partial curve, poor fit]"
CCCSc1nc2cc(OC)c(OC)cc2c(=N)n1CCCN1CCOCC1,"1.26 µM [rising, full curve, poor fit]",–

# The list goes on.

SMILES,AC50 [1],AC50 [2]
COc1cccc(NC(=O)c2sc3nc4n(c(=O)c3c2C)CCC4)c1,–,"35.5 µM [falling, single point]"
CN(c1ccccc1)S(=O)(=O)c1ccc(C(=O)Nc2nnc(-c3ccco3)o2)cc1,–,"0.0562 µM [rising, single point]"
CO[C@]1(NC(=O)Cc2cccs2)C(=O)N2C(C(=O)O)=C(COC(N)=O)CS[C@H]21,–,"0.562 µM [falling, partial curve]"
O=S(=O)(CCSc1nc2ccccc2s1)c1nc2ccccc2s1,"35.5 µM [falling, single point]","35.5 µM [falling, single point]"
CC(C)Oc1ccc2c(=O)c(-c3ccccc3)coc2c1,"7.08 µM [rising, partial curve]","1.12 µM [falling, partial curve, poor fit]"
CCc1nnc(NC(=O)CSc2nc(C)c3c(c2C#N)CCCC3)s1,"35.5 µM [rising, single point]","35.5 µM [rising, single point]"
CCN(CC(=O)N1CCN(c2ccccc2)CC1)S(=O)(=O)c1ccc(C)cc1,"14.1 µM [rising, partial curve]","5.01 µM [rising, partial curve]"
COc1ccccc1C(N)=S,–,"3.98 µM [rising, full curve, poor fit]"
O=C(NC1CC1)c1ccc(COc2ccc(F)cc2)o1,"20 µM [rising, single point]",–
CCC(=O)n1nc(NCc2ccccc2OC)nc1NCc1ccccc1OC,"25.1 µM [rising, single point]",–
S=C(NCCc1ccc(Cl)cc1)NC1CCCC1,"10 µM [rising, partial curve]",–
CCN(CC)CCNC(=S)Nc1ccc2nc(N3CCCC3)cc(C)c2c1,"1.12 µM [rising, single point]",–
COC1=CC(=O)C(O)=C/C1=C\C=C\c1ccccc1,"3.55 µM [falling, full curve]","3.55 µM [falling, full curve]"
O=S(=O)(c1ccc(N2CCN(S(=O)(=O)c3ccc4c(c3)OCCO4)CC2)nc1)N1CCCC1,"11.2 µM [rising, partial curve]",–
O=C(COc1cccc(NC(=O)c2cccc([N+](=O)[O-])c2)c1)c1ccc(F)cc1,"14.1 µM [rising, partial curve]","11.2 µM [rising, single point]"
COc1cc(/C=N/Nc2ncnc3sc4c(c23)CCC4)ccc1O,–,"0.178 µM [falling, full curve]"
O=C(/C=C/c1cccnc1)c1ccc(NC(=O)c2cccc(Br)c2)cc1,"28.2 µM [falling, single point]","35.5 µM [falling, single point]"
Cc1ccc2nc(NC(=O)CN(C)S(=O)(=O)c3ccc(Br)s3)sc2c1,"31.6 µM [rising, single point]",–
FC(F)(F)c1ccc(Oc2ccc3c(C(F)(F)F)cc(C(F)(F)F)nc3n2)cc1,"0.00891 µM [falling, full curve, poor fit]","0.00794 µM [falling, full curve, poor fit]"

SMILES,AC50 [1],AC50 [2]
N#Cc1c(C(F)(F)F)cc(C2CC2)nc1N1CCCC1,"14.1 µM [falling, partial curve, poor fit]",–
COc1cc2cc(C(c3nnnn3C(C)(C)C)N3CCc4ccccc4C3)c(=O)[nH]c2cc1OC (stereo not drawn),"22.4 µM [rising, single point]",–
COc1cc(NC(=O)C23CC4CC(C2)CC(n2nnc(C)n2)(C4)C3)c(OC)cc1Cl,"12.6 µM [rising, partial curve]",–
CC(C)C1=CC2=CC[C@@H]3[C@](C)(CO)CCC[C@]3(C)C2CC1 (stereo partly drawn),"31.6 µM [rising, single point]",–
O=C(O)CSCc1cnn(-c2ccccc2)c1-n1cccc1,"11.2 µM [rising, partial curve]","7.08 µM [rising, partial curve]"
COc1ccc(C(=O)CCC(=O)Nc2cccnc2)cc1,"0.0501 µM [falling, full curve, poor fit]",–
CCN(CC)CCCC(C)NC(=O)c1ccc(C(F)(F)F)cc1 (stereo not drawn),"10 µM [falling, partial curve, poor fit]",–
Cc1nc(C)c2c(=O)cc(-c3ccccc3)[nH]c2n1,"2.51 µM [rising, partial curve, poor fit]",–
S=C(Nc1ccccc1)c1nc2ccccc2s1,"0.891 µM [rising, partial curve, poor fit]",–
CNCCOc1ccc(Cl)c(Cl)c1,"10 µM [falling, partial curve, poor fit]","8.91 µM [falling, partial curve, poor fit]"
Clc1ccc2nsnc2c1NC1=NCCN1,"25.1 µM [falling, single point]","31.6 µM [falling, partial curve]"
Cc1ccc(OCC(=O)c2c[nH]c3ccccc23)c([N+](=O)[O-])n1,"0.794 µM [rising, single point]",–
COc1cc(-c2nnc(SCC(=O)N(Cc3ccccc3)C(C)(C)C)o2)cc(OC)c1OC,"10 µM [rising, partial curve]",–
CC1CCC(NC(=O)C(NC(=O)c2ccccc2)C(C)C)CC1 (stereo not drawn),"0.0224 µM [falling, full curve, poor fit]",–
O=C(C[n+]1cc(-c2ccccc2)n2c1CCC2)OCc1ccccc1,"0.316 µM [falling, full curve, poor fit]","0.316 µM [falling, full curve, poor fit]"
COc1ccc(NS(=O)(=O)c2ccc3nc(COc4ccc(C#N)cc4)[nH]c3c2)cc1,"22.4 µM [rising, single point]","14.1 µM [rising, single point]"
CCCCNC(=O)c1onc(CSc2cccc(OCC)c2)c1C(=O)O,"4.47 µM [falling, single point]",–
CN1CCCCc2c1nc1c(c2N)CCCC1,–,"4.47 µM [rising, partial curve, poor fit]"
